Values from PubChem BioAssay AID1259254 (NCATS, 2017).
In all, the deposit lists about 59,000 reagents; below is a random part of them. Of all reagents, about 1,550 (2.6%) got an active call. 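G2 share is only a proxy for re-replication; each gene was hit by three separate siRNAs, and active genes were retested.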 Raw values vary from plate to plate and are shown uncorrected. A number with no mark means an inactive call. Reagents against one gene are numbered here. Not stated in the record: the amount of reagent.

Test: 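Genome-wide screen for genes that prevent DNA re-replication in cancer cells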 (primary screen)
Cell system: human HCT116 colorectal cancer cells
Reagents: single siRNA against human genes
Duration: 3 days
Detection: 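Nuclei stained with Hoechst and imaged; cell-cycle phase assigned by DNA content; G2 share scaled per plate, non-targeting siRNA 0%, GMNN siRNA 100%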
Direction: G2 robust z-score and G2 cells, % of GMNN control: higher = more G2 cells, more excess DNA replication; raw share of cells in G2: higher = larger share of cells with G2 DNA content
Call rule: 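An siRNA counts as active if its G2 robust z-score lies at least 5 MADs above the screen median; here such calls match roughly 38% of GMNN control or more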

The opening 8 entries, to show the layout:
gene knocked down	siRNA no.	G2 robust z-score	G2 cells, % of GMNN control	raw share of cells in G2 (%)
PAF1 (PAF1 component of Paf1/RNA polymerase II complex)	1	-0.127	2.07	4.34
PAF1 (PAF1 component of Paf1/RNA polymerase II complex)	2	-0.478	-0.395	4.1
PAF1 (PAF1 component of Paf1/RNA polymerase II complex)	3	-0.507	-0.601	2.99
HGSNAT (heparan-alpha-glucosaminide N-acetyltransferase)	1	-1.06	-4.52	2.47
HGSNAT (heparan-alpha-glucosaminide N-acetyltransferase)	2	0.159	4.09	4.4
HGSNAT (heparan-alpha-glucosaminide N-acetyltransferase)	3	0.135	3.92	4
BACH1 (BTB domain and CNC homolog 1)	1	0.213	4.46	6.24
BACH1 (BTB domain and CNC homolog 1)	2	-0.278	1.01	5.43

Main list, from the start:
gene knocked down	siRNA no.	G2 robust z-score	G2 cells, % of GMNN control	raw share of cells in G2 (%)
PAF1 (PAF1 component of Paf1/RNA polymerase II complex)	1	-0.127	2.07	4.34
PAF1 (PAF1 component of Paf1/RNA polymerase II complex)	2	-0.478	-0.395	4.1
PAF1 (PAF1 component of Paf1/RNA polymerase II complex)	3	-0.507	-0.601	2.99
HGSNAT (heparan-alpha-glucosaminide N-acetyltransferase)	1	-1.06	-4.52	2.47
HGSNAT (heparan-alpha-glucosaminide N-acetyltransferase)	2	0.159	4.09	4.4
HGSNAT (heparan-alpha-glucosaminide N-acetyltransferase)	3	0.135	3.92	4
BACH1 (BTB domain and CNC homolog 1)	1	0.213	4.46	6.24
BACH1 (BTB domain and CNC homolog 1)	2	-0.278	1.01	5.43
BACH1 (BTB domain and CNC homolog 1)	3	-0.328	0.659	4.24
SUN1 (Sad1 and UNC84 domain containing 1)	1	-0.66	-1.68	3.78
SUN1 (Sad1 and UNC84 domain containing 1)	2	-0.249	1.22	4.47
SUN1 (Sad1 and UNC84 domain containing 1)	3	1.1	10.7	7.05
ARL5A (ARF like GTPase 5A)	1	1.52	13.7	8.47
ARL5A (ARF like GTPase 5A)	2	-0.357	0.453	4.34
ARL5A (ARF like GTPase 5A)	3	0.852	8.96	10.2
GNAI2 (G protein subunit alpha i2)	1	-1.23	-5.7	3.09
GNAI2 (G protein subunit alpha i2)	2	-0.917	-3.48	2.42
GNAI2 (G protein subunit alpha i2)	3	-0.0346	2.72	6.23
MYPN (myopalladin)	1	-1.01	-4.12	2.74
MYPN (myopalladin)	2	3.15	25.1	10.9
MYPN (myopalladin)	3	-0.534	-0.792	2.16
CDK19 (cyclin dependent kinase 19)	1	-0.0677	2.49	6.36
CDK19 (cyclin dependent kinase 19)	2	-1.5	-7.56	2.44
CDK19 (cyclin dependent kinase 19)	3	1.78	15.5	8.65
RBL1 (RB transcriptional corepressor like 1)	1	-0.258	1.15	5.37
RBL1 (RB transcriptional corepressor like 1)	2	4.1	31.8	16.8
RBL1 (RB transcriptional corepressor like 1)	3	-0.795	-2.62	3.27
CFAP91 (cilia and flagella associated protein 91)	1	3.97	30.9	12.7
CFAP91 (cilia and flagella associated protein 91)	2	0.579	7.04	7.07
CFAP91 (cilia and flagella associated protein 91)	3	-0.918	-3.49	1.91
TRIR (telomerase RNA component interacting RNase)	1	-0.872	-3.17	1.86
TRIR (telomerase RNA component interacting RNase)	2	-1.21	-5.56	2.16
TRIR (telomerase RNA component interacting RNase)	3	-0.254	1.18	5.14
C6orf136 (chromosome 6 open reading frame 136)	1	2.14	18	10.1
C6orf136 (chromosome 6 open reading frame 136)	2	-0.845	-2.98	2.11
C6orf136 (chromosome 6 open reading frame 136)	3	5.02 (active)	38.3	15.4
GRHL3 (grainyhead like transcription factor 3)	1	-0.37	0.362	6.07
GRHL3 (grainyhead like transcription factor 3)	2	0.376	5.61	4.77
GRHL3 (grainyhead like transcription factor 3)	3	-0.473	-0.363	3.52
RPLP1P5 (ribosomal protein lateral stalk subunit P1 pseudogene 5)	1	2.34	19.5	9.28
RPLP1P5 (ribosomal protein lateral stalk subunit P1 pseudogene 5)	2	-0.0805	2.4	3.45
RPLP1P5 (ribosomal protein lateral stalk subunit P1 pseudogene 5)	3	-0.475	-0.376	4.03
FRG1-DT (FRG1 divergent transcript)	1	1.39	12.8	8.39
FRG1-DT (FRG1 divergent transcript)	2	-0.983	-3.95	1.48
FRG1-DT (FRG1 divergent transcript)	3	-0.0573	2.56	4.57
SERPINA4 (serpin family A member 4)	1	-0.189	1.63	5.33
SERPINA4 (serpin family A member 4)	2	-1.06	-4.49	2.95
SERPINA4 (serpin family A member 4)	3	1.12	10.8	6.75
RNF168 (ring finger protein 168)	1	0.469	6.27	5.85
RNF168 (ring finger protein 168)	2	-0.323	0.694	3.19
RNF168 (ring finger protein 168)	3	-0.0801	2.4	3.52
KIF15 (kinesin family member 15)	1	1.06	10.4	8.69
KIF15 (kinesin family member 15)	2	-0.403	0.131	4.49
KIF15 (kinesin family member 15)	3	7.01 (active)	52.3	29.4
CEBPE (CCAAT enhancer binding protein epsilon)	1	-0.706	-2	4.25
CEBPE (CCAAT enhancer binding protein epsilon)	2	0.907	9.35	8.41
CEBPE (CCAAT enhancer binding protein epsilon)	3	2.87	23.1	12.1
CTBP2 (C-terminal binding protein 2)	1	5.33 (active)	40.5	18
CTBP2 (C-terminal binding protein 2)	2	-0.822	-2.82	3.96
CTBP2 (C-terminal binding protein 2)	3	-1.17	-5.26	3.09
ZNF622 (zinc finger protein 622)	1	1.87	16.1	13.2
ZNF622 (zinc finger protein 622)	2	3.19	25.4	15.9
ZNF622 (zinc finger protein 622)	3	0.813	8.69	7.76
ARMC2 (armadillo repeat containing 2)	1	-0.356	0.459	4.26
ARMC2 (armadillo repeat containing 2)	2	-0.866	-3.12	2.53
ARMC2 (armadillo repeat containing 2)	3	0.338	5.35	4.03
TRPC5	1	-0.351	0.499	5.47
TRPC5	2	2.63	21.5	12
TRPC5	3	3.81	29.8	16
